Laboratory results: patent US20240287489A1, “CHITINOLYTIC ENZYME-BASED PLANT PROTECTION AGENTS” (GLOBACHEM NV, priority 2021, published 2024)
Some entries share one result that the patent states for a list of compounds. At least one compound was matched to its structure with a doubt left.

These compounds were tested on recombinant chitinase C1 (assay: Effect of metallic ions and chemical compounds on chitinase activity). Settings: ions 1 mM, Tween 20 and Triton X-100 0.5% (v/v), Imidazole 100 mM.
Assay type: biochemical, P. orarium
Procedure: The addition of different co-factors and chemicals was assessed to determine whether they stimulate or inhibit enzymatic activity and the effect was evaluated relative to the control in standard MAT buffer (33 mM 2-(N-morpholino) ethanesulfonic acid (MES), 33 mM sodium acetate, 33 mM Tris(hydroxymethyl) aminomethane (TRIS); pH 8.0). The selection of tested compounds at the respective concentrations was based on findings for different chitinases so far [Zarei et al., J. Microbiol., 2011. 42: p. 1017-1029.]. […] All enzymes were inhibited the strongest by Zn2+ and Cu2+ and SDS (0.5% w/v) resulting in a relative loss of activity of up to 99%. […] Inhibitory effects of Ni2+ and imidazole on enzymatic activity also underline the requirement for dialysis of the elution fractions after purification in order to remove residual Ni2+ and imidazole from the elution buffer.
Enzyme samples were incubated at different temperature (10-60° C., 10° C. increment) and pH (4-11, increment 1) using different buffer systems (Acetate, Tris-HCl, MES, total molar concentration 100 mM), as well as NaCl content (0, 1. 2.5, 5, 10 and 20% w/v) to determine optimum reaction conditions. All experiments were carried out at 1.0 ml scale using 2 μM of the respective enzymes and a 5% (wv) suspension of chitin powder extracted from shrimp shells (˜400.000 g/mol; Carl, Roth) in 100 mM MAT buffer. For the determination of the substrate specificity, chitin powder (5% w/v), glycol chitin (10% v/v), colloidal chitin (5% w/v), chitosan [DA 15-25%, medium molecular weight, Sigma-Aldrich] (5% w/v) and microcrystalline cellulose powder (Sigma Aldrich) (5% w/v) were investigated, respectively. The effect of several potential co-factors on activity was elucidated at a concentration of 1 mM. Additionally, the effect of detergents [SDS 0.5% (w/v), Tween-20 and Triton X-100 both at 0.5% (v/v)] and chemicals (Imidazole 100 mM, EDTA 1 mM) on enzymatic activity was assessed. Samples were incubated in a thermomixer for 16 h at 900 rpm. After incubation, samples were analyzed using the enzyme assay. Thermostability was assessed after incubation of recombinant chitinases at 60° C. for different durations followed by the quantification of residual enzyme activity under standard assay conditions.

Compound | minimal residual activity of C1 relative to the control
[K+] [K^2+] | ≥ 84.3%
Triton X100 | ≥ 84.3%
c1c[nH]cn1 [Imidazole] | ≥ 84.3%
[Mg+2] [Mg^2+] | ≥ 84.3%
[Ca+2] [Ca^2+] | ≥ 84.3%
